In paper PMC9299187:
No constants are given. Whether binding was seen depends on the method and setting. For some of these results: Binding can be weak; no strength is given. For some of these results: Binding seen in cells or lysates may run through a third protein.

T1: serine hydroxymethyltransferase (SHMT1), purified recombinant, tetrameric (human) (UniProt P34896)
T1 sequence: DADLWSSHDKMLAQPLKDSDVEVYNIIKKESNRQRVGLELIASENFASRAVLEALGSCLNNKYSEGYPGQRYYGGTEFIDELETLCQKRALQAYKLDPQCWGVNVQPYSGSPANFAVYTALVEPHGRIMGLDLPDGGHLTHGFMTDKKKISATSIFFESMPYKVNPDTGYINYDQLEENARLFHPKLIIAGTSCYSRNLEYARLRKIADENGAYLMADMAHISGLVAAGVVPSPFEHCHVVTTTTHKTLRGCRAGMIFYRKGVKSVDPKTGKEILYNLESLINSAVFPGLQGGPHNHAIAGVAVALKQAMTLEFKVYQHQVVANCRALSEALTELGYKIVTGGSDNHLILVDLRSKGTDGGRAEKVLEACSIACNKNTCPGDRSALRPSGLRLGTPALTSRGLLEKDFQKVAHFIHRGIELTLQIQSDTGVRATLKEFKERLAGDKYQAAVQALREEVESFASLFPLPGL


How the values were obtained:
[1] = target: T1, serine hydroxymethyltransferase (SHMT1), purified recombinant, tetrameric (human); assay: far-Western, overlay or dot blot; proteins resolved by SDS/PAGE, blotted on PVDF, renatured on the membrane, incubated with 50 ng/mL of the purified protein in solution at 4 °C overnight; detected with antibodies to the protein in solution; both purified
[2] = target: T1, serine hydroxymethyltransferase (SHMT1), purified recombinant, tetrameric (human); assay: co-IP; purified SHMT1 and Chimera-Long mixed 1 : 2 in 50 mM NaCl, 20 mM Hepes pH 7.5; anti-SHMT1 or anti-TYMS with Protein G-Plus agarose beads, overnight; western blot with anti-DHFR, anti-TYMS or anti-SHMT1; both purified
[3] = target: Chimera‐Short (human DHFR‐TYMS bifunctional chimeric enzyme with 10 amino acid linker) (human); assay: far-Western, overlay or dot blot; proteins resolved by SDS/PAGE, blotted on PVDF, renatured on the membrane, incubated with 50 ng/mL of the purified protein in solution at 4 °C overnight; detected with antibodies to the protein in solution; both purified
[4] = target: Chimera‐Long (human DHFR‐TYMS bifunctional chimeric enzyme with 20 amino acid linker) (human); assay: as above
[5] = target: Chimera‐Long (human DHFR‐TYMS bifunctional chimeric enzyme with 20 amino acid linker) (human); assay: differential scanning fluorimetry; 0.5 uM SHMT1 and 0.5 uM Chimera-Long mixed and incubated overnight at 4 °C in 20 mM Na Hepes, 50 mM NaCl; Sypro Orange; with or without CHO-THF, NADPH or dUMP; both purified
[6] = target: Chimera‐Long (human DHFR‐TYMS bifunctional chimeric enzyme with 20 amino acid linker) (human); assay: co-IP; purified SHMT1 and Chimera-Long mixed 1 : 2 in 50 mM NaCl, 20 mM Hepes pH 7.5; anti-SHMT1 or anti-TYMS with Protein G-Plus agarose beads, overnight; western blot with anti-DHFR, anti-TYMS or anti-SHMT1; both purified

Row | binding [1] | binding [2] | binding [5] | binding [6] | Molecule | binding [3] | binding [4]
1 | binds | binds |  |  | Chimera‐Long (human DHFR‐TYMS bifunctional chimeric enzyme with 20 amino acid linker) |  | 
2 |  |  | binds | binds | serine hydroxymethyltransferase (SHMT1), purified recombinant, tetrameric (enzyme, UniProt P34896 11-480) DADLWSSHDKMLAQPLKDSDVEVYNIIKKESNRQRVGLELIASENFASRAVLEALGSCLNNKYSEGYPGQRYYGGTEFIDELETLCQKRALQAYKLDPQCWGVNVQPYSGSPANFAVYTALVEPHGRIMGLDLPDGGHLTHGFMTDKKKISATSIFFESMPYKVNPDTGYINYDQLEENARLFHPKLIIAGTSCYSRNLEYARLRKIADENGAYLMADMAHISGLVAAGVVPSPFEHCHVVTTTTHKTLRGCRAGMIFYRKGVKSVDPKTGKEILYNLESLINSAVFPGLQGGPHNHAIAGVAVALKQAMTLEFKVYQHQVVANCRALSEALTELGYKIVTGGSDNHLILVDLRSKGTDGGRAEKVLEACSIACNKNTCPGDRSALRPSGLRLGTPALTSRGLLEKDFQKVAHFIHRGIELTLQIQSDTGVRATLKEFKERLAGDKYQAAVQALREEVESFASLFPLPGL | no binding (tested: 50 ng·mL^−1 of the bait protein) | binds
3 |  |  |  |  | dimeric variant of SHMT1 (H135N‐R137A) (enzyme, UniProt P34896 11-480) DADLWSSHDKMLAQPLKDSDVEVYNIIKKESNRQRVGLELIASENFASRAVLEALGSCLNNKYSEGYPGQRYYGGTEFIDELETLCQKRALQAYKLDPQCWGVNVQPYSGSPANFAVYTALVEPNGAIMGLDLPDGGHLTHGFMTDKKKISATSIFFESMPYKVNPDTGYINYDQLEENARLFHPKLIIAGTSCYSRNLEYARLRKIADENGAYLMADMAHISGLVAAGVVPSPFEHCHVVTTTTHKTLRGCRAGMIFYRKGVKSVDPKTGKEILYNLESLINSAVFPGLQGGPHNHAIAGVAVALKQAMTLEFKVYQHQVVANCRALSEALTELGYKIVTGGSDNHLILVDLRSKGTDGGRAEKVLEACSIACNKNTCPGDRSALRPSGLRLGTPALTSRGLLEKDFQKVAHFIHRGIELTLQIQSDTGVRATLKEFKERLAGDKYQAAVQALREEVESFASLFPLPGL |  | no binding (tested: 50 ng·mL^−1 of the bait protein)
